Data as given in the M2OR odorant receptor database.
Residue numbers refer to the chain shown, from its start. Only a part is listed here, and it is no random draw. Calls are pooled over several reports, among them a noisy single-well screen. The list shows a part of the results.

Chains of the proteins cited; added tags and fusions are not shown. Chains listed by the source or under a name are the forms on record and can include a tag or linker.
OR1E2, as listed by the source: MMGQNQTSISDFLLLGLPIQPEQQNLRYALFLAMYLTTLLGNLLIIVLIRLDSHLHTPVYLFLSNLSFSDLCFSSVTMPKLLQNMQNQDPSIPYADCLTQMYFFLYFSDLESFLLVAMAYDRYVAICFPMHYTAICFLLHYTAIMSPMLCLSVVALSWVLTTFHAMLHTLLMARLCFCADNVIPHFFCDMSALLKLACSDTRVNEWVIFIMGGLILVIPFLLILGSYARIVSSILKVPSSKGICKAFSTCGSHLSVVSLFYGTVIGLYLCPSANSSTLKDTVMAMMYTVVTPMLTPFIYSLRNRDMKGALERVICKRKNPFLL

Legend:
Conditions in all cases: stereoisomer not certain
OR1D5 (Homo sapiens) = target: T1, OR1D5 (Homo sapiens) (UniProt P58170)
T1 sequence (whole entry): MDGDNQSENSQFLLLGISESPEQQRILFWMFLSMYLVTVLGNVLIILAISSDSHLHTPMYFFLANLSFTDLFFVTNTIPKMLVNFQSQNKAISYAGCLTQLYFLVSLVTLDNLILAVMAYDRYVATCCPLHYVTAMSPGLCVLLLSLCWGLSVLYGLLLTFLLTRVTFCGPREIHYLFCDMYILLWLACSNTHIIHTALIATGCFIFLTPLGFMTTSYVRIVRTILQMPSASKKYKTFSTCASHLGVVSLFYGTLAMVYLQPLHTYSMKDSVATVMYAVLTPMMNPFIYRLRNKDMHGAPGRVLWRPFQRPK
Summary of the method: (§1)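 Values were gathered from published papers (main text and supplementary material), with extra details requested from the original authors when needed, and checked for typos and inconsistencies. Each receptor–molecule pair is called responsive (active) if the original authors judged the measured signal statistically different from baseline, and non-responsive (inactive) otherwise. Assay methods varied by source, often transient mammalian cell-line luciferase assays. Recorded details include cell line, G-protein, co-transfected protein and tags.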

OR1D5 = test system: T2, OR1D5
T2 sequence (whole entry): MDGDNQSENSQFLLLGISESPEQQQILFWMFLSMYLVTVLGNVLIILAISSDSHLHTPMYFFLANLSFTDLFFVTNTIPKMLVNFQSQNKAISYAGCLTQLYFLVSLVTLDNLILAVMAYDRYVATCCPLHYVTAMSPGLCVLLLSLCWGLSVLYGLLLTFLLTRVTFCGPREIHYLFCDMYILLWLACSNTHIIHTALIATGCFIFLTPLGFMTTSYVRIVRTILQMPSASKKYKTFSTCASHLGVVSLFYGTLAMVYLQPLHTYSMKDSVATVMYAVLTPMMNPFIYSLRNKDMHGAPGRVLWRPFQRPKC
Summary of the method: as §1

OR1E1 [1] = test system: T3, OR1E1
T3 sequence (whole entry): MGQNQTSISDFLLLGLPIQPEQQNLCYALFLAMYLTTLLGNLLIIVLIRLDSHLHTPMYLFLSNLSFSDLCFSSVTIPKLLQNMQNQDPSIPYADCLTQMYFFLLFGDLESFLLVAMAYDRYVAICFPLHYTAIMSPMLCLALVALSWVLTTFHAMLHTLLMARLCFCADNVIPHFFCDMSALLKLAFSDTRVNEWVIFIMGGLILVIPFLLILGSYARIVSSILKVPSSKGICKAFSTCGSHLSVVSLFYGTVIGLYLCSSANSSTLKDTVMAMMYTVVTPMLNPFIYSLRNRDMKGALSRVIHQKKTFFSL
Summary of the method: as §1

OR1E1 [2] = test system: T4, OR1E1; remark: listed apart in the source
T4 sequence (whole entry): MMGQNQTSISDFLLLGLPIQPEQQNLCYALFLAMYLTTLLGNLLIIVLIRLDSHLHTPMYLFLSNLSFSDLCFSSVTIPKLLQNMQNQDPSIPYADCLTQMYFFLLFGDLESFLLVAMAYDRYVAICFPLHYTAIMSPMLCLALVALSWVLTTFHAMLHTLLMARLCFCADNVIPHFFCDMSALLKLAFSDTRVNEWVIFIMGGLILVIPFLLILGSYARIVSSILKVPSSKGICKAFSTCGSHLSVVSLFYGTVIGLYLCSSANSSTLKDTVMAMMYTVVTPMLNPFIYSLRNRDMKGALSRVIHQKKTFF
Summary of the method: as §1

OR1E2 (Homo sapiens) = target: T5, OR1E2 (Homo sapiens) (UniProt P47887)
T5 sequence (whole entry): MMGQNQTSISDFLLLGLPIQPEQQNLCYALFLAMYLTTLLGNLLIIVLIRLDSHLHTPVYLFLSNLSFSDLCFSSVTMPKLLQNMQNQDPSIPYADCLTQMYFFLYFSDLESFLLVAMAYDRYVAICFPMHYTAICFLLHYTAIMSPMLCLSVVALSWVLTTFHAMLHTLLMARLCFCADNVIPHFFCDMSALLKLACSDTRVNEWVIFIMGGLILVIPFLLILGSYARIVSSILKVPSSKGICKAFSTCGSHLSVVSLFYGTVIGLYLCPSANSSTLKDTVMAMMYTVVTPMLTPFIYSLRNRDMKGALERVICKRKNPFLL
Summary of the method: as §1

OR1E2 = test system: T6, OR1E2
T6 sequence (whole entry): T5 sequence (whole entry) with C27R
Summary of the method: as §1

OR1F1 = test system: T7, OR1F1
T7 sequence (whole entry): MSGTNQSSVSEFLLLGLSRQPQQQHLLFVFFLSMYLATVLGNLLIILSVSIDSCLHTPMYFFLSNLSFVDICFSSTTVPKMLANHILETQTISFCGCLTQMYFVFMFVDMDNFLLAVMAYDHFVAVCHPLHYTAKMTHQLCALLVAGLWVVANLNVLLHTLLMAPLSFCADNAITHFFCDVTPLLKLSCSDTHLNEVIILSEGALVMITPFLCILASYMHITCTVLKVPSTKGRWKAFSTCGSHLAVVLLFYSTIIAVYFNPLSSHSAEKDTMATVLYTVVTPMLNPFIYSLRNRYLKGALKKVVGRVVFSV
Summary of the method: as §1

OR1FC = test system: T8, OR1FC
T8 sequence (whole entry): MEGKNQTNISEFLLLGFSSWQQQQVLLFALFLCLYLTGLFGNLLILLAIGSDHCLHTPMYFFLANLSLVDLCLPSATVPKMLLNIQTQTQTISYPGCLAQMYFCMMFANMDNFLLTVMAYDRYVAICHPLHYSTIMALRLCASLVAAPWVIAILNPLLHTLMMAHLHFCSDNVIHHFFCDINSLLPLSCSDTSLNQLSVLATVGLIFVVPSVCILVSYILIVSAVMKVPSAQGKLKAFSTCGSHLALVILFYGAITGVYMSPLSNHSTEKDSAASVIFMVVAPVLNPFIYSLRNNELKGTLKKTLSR
Summary of the method: as §1

OR1G1 (Homo sapiens) = target: T9, OR1G1 (Homo sapiens) (UniProt P47890)
T9 sequence (whole entry): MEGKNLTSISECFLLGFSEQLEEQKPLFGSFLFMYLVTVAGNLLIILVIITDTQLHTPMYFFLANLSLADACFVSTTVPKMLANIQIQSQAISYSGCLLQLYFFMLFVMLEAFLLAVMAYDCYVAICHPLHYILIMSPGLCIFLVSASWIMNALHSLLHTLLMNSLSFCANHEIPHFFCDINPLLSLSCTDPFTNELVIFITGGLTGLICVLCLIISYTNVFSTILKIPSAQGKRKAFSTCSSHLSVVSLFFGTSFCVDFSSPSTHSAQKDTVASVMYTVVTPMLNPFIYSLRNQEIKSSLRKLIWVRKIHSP
Summary of the method: as §1

OR1I1 = test system: T10, OR1I1
T10 sequence (whole entry): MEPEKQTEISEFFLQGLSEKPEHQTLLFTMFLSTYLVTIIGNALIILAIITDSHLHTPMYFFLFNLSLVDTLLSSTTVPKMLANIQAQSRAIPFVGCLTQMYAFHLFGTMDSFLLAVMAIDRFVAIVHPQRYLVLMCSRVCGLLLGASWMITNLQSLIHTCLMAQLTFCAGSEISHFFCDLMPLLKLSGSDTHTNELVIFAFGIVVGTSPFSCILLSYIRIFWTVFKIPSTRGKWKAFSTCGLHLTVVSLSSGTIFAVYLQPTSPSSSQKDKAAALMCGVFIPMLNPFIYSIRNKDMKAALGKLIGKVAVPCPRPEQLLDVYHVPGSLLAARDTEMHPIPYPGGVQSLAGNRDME
Summary of the method: as §1

OR1J1 (Homo sapiens) = target: T11, OR1J1 (Homo sapiens) (UniProt Q8NGS3)
T11 sequence (whole entry): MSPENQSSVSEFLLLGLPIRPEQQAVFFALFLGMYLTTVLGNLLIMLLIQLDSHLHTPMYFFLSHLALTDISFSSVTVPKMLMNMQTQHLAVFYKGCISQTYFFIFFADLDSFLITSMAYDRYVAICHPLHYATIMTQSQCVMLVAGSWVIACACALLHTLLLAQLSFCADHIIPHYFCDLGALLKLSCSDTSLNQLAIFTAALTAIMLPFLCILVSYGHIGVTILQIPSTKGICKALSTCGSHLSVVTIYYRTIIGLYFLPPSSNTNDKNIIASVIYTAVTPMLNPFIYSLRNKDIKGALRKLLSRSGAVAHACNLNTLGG
Summary of the method: as §1

OR1J2 (Homo sapiens) = target: T12, OR1J2 (Homo sapiens) (UniProt Q8NGS2)
T12 sequence (whole entry): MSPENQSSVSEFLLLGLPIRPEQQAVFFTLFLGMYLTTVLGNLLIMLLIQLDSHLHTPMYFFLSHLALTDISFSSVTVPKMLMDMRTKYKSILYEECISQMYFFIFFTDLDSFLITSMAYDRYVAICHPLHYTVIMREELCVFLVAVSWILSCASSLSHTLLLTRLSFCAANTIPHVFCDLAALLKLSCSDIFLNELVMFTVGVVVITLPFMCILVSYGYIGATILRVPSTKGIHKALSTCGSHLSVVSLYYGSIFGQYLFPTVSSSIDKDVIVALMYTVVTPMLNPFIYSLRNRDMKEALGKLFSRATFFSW
Summary of the method: as §1

OR1J4 (Homo sapiens) = target: T13, OR1J4 (Homo sapiens) (UniProt Q8NGS1)
T13 sequence (whole entry): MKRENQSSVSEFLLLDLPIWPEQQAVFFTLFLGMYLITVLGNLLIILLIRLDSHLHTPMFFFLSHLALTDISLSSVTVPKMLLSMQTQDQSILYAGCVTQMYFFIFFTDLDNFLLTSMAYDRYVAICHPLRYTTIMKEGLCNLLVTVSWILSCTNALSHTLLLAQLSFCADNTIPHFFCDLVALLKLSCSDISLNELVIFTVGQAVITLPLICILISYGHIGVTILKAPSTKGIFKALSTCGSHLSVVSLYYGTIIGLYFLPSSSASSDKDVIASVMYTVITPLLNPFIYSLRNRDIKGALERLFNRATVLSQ
Summary of the method: as §1

OR1K1 (Homo sapiens) = target: T14, OR1K1 (Homo sapiens) (UniProt Q8NGR3)
T14 sequence (whole entry): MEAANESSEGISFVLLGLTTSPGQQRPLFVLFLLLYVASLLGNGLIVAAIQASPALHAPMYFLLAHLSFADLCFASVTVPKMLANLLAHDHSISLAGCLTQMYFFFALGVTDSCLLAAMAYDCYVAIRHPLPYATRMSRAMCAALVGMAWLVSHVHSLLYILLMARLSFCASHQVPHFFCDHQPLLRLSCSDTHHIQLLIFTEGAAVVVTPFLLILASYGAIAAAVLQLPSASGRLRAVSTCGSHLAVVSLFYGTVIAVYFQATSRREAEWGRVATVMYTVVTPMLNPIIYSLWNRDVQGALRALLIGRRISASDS
Summary of the method: as §1

Structure (SMILES)	odorant receptor agonist call (OR1D5 (Homo sapiens))	odorant receptor agonist call (OR1D5)	odorant receptor agonist call (OR1E1 [1])	odorant receptor agonist call (OR1E1 [2])	odorant receptor agonist call (OR1E2 (Homo sapiens))	odorant receptor agonist call (OR1E2)	odorant receptor agonist call (OR1F1)	odorant receptor agonist call (OR1FC)	odorant receptor agonist call (OR1G1 (Homo sapiens))	odorant receptor agonist call (OR1I1)	odorant receptor agonist call (OR1J1 (Homo sapiens))	odorant receptor agonist call (OR1J2 (Homo sapiens))	odorant receptor agonist call (OR1J4 (Homo sapiens))	odorant receptor agonist call (OR1K1 (Homo sapiens))
CC(C)(C)c1ccc(CCC=O)cc1	inactive	inactive	inactive	inactive	inactive	inactive	inactive	inactive	inactive	inactive	inactive	inactive	inactive	inactive
CCCCCCCC=CC=O	inactive	inactive	inactive	inactive	inactive	inactive	inactive	inactive	inactive	active	inactive	inactive	inactive	inactive
CC(C)CCC(=O)O	inactive	inactive	inactive	inactive	inactive	inactive	inactive	inactive	inactive	inactive	inactive	inactive	inactive	inactive
CCCCCOC(C)=O	inactive	inactive	inactive	inactive	inactive	inactive	inactive	inactive	inactive	inactive	inactive	inactive	inactive	inactive
CC(=O)OC(C)(C)C1CC=C(C)CC1 (configuration not stated)	inactive	inactive	inactive	inactive	inactive	inactive	inactive	inactive	inactive	inactive	inactive	inactive	inactive	inactive
CCCCCCCCCCC=O	inactive	inactive	inactive	inactive	inactive	inactive	inactive	inactive	active	inactive	inactive	inactive	inactive	inactive
C=C(C)C1CCC2=CC(=O)CC(C)C2(C)C1 (configuration not stated)	–	inactive	–	–	–	–	–	active	–	–	active	–	–	–
